± gives the standard deviation of the averaged measurements. The entries are a selection whose mix differs from that of the whole data set.
Compound: Nc1ncnc2c1ncn2[C@@H]1O[C@H](COP(=O)(O)OP(=O)(O)NP(=O)(O)O)[C@@H](O)[C@H]1O [adenylyl imidodiphosphate]
Experiment: NP40-soluble protein abundance relative to vehicle (solubility fold change) (ratio); higher = more soluble protein in presence of AMP-PNP
Procedure, shortened: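 Jurkat crude lysate (Dounce-homogenised) was treated with eight concentrations from 0.1 to 10 mM for 10 min at room temperature, then 3 min at 37 °C. It was solubilised with 0.8% NP40 and benzonase (60 min, 4 °C) and ultracentrifuged, and the supernatant was TMT-labelled for LC-MS/MS. Intensities were vsn-normalised, and the value is the fold change against the NP40-processed vehicle per replicate, from three independent experiments.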

Sequences of proteins named here, by UniProt entry; tags and fusion partners are left off. A change or cut given only in a name is not applied to a line headed by its entry.
UniProt Q9UK99: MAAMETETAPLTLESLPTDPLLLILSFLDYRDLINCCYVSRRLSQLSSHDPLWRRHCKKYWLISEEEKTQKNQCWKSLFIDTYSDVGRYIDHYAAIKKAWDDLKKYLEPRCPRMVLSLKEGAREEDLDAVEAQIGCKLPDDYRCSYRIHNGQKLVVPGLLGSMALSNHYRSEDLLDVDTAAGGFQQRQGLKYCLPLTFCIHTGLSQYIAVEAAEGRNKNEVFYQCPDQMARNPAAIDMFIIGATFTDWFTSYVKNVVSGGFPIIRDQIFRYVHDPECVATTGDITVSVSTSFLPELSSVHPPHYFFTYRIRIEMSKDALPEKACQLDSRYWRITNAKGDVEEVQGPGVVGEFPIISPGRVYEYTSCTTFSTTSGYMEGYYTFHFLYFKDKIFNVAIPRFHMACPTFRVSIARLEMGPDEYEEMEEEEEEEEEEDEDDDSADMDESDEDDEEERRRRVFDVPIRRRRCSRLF
UniProt O00559: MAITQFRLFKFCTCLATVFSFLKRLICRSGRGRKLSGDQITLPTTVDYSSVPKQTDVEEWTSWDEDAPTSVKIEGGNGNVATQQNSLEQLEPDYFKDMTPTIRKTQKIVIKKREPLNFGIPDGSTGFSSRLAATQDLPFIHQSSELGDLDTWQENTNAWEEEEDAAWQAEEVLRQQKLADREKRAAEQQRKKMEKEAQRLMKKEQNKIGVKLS
UniProt P27816: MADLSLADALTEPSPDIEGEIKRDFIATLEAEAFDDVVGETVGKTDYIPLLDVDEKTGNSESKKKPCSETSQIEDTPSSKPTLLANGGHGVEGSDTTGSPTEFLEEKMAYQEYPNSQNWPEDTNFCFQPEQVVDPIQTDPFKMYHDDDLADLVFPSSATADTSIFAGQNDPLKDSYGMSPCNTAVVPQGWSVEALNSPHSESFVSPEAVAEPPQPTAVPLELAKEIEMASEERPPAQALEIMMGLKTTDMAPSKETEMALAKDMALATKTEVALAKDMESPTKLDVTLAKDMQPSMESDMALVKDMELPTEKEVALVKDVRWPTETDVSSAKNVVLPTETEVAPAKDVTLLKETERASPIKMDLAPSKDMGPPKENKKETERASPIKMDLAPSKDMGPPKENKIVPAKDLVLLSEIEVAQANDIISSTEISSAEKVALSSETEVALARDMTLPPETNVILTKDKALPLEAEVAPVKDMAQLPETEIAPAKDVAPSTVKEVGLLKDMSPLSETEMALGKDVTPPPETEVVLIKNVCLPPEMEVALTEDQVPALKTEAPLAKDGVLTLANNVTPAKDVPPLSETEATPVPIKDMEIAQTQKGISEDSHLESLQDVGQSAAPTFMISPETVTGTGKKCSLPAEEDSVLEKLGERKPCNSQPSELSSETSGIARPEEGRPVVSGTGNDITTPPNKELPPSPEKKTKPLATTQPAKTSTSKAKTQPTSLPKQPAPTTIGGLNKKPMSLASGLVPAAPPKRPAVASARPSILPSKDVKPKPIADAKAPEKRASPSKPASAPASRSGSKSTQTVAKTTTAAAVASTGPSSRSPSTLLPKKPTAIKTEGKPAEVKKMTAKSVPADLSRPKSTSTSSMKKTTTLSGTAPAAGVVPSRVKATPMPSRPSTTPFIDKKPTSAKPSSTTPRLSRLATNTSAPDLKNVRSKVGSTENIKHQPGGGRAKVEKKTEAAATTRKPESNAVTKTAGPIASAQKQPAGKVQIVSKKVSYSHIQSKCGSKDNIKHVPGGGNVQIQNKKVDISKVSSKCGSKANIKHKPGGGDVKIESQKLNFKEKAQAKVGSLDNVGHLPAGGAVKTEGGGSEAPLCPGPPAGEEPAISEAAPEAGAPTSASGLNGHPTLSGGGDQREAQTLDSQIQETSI
UniProt Q9NQV6: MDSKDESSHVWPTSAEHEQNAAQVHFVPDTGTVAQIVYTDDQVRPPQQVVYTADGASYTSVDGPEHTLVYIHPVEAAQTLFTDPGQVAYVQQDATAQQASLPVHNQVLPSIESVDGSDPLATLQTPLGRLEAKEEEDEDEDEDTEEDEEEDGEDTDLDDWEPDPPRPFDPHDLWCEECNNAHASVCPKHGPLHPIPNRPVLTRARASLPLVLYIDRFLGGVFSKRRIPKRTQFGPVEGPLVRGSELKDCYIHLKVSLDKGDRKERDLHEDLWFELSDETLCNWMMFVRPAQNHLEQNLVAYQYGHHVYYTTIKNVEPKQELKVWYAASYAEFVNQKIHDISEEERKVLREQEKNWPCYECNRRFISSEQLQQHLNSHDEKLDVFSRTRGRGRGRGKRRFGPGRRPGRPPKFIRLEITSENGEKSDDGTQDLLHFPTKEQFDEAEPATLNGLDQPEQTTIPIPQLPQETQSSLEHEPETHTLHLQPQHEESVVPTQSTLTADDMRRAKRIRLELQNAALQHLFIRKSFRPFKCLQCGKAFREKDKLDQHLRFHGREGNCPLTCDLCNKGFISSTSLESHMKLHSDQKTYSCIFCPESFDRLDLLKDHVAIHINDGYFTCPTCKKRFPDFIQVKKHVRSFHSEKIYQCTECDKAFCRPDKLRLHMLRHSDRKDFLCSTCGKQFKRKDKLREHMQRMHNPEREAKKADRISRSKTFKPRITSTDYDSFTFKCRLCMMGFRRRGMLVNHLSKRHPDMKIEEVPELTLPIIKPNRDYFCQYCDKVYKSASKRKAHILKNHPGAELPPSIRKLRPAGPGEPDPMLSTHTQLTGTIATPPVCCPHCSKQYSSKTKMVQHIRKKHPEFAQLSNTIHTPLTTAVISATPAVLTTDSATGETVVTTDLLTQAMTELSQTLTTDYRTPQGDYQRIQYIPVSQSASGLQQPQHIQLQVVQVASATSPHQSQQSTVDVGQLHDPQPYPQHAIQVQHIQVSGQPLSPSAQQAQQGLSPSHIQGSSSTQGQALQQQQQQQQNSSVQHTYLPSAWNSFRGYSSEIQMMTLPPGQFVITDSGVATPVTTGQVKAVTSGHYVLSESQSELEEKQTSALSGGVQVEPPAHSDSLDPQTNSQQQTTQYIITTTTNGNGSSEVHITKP
UniProt P36873, whole entry, looked up: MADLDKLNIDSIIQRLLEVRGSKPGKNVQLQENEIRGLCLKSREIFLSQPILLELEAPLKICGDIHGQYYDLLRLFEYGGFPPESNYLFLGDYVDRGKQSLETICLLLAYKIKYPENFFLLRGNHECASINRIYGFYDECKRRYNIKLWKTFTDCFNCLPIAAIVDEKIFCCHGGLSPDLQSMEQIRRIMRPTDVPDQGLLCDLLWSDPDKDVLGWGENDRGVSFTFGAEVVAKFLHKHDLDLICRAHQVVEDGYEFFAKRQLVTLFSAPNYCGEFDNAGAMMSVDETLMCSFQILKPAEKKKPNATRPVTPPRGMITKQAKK
UniProt Q9Y324: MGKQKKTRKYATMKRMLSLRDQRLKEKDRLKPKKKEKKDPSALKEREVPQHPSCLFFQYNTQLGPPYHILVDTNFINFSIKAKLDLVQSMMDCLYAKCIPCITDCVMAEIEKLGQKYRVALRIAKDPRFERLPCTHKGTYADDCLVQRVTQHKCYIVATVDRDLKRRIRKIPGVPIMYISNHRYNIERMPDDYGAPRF
UniProt Q14534: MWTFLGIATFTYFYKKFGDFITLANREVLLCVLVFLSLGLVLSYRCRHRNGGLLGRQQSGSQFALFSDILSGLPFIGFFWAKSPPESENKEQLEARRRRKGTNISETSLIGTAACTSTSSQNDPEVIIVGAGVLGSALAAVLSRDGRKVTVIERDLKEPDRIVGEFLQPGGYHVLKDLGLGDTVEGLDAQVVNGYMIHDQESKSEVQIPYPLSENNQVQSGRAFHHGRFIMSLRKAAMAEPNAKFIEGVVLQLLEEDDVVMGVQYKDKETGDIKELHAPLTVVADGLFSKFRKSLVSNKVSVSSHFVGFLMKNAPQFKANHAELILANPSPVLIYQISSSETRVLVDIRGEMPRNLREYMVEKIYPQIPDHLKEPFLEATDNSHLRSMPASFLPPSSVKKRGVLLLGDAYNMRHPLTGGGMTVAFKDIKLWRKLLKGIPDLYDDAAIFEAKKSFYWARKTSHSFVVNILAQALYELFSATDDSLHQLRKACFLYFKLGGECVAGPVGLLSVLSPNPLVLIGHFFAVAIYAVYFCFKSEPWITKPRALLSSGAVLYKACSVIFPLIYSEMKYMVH
UniProt P14621: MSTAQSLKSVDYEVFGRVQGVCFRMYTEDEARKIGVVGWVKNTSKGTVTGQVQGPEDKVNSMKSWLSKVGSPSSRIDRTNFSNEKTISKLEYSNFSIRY
UniProt Q13490, whole entry: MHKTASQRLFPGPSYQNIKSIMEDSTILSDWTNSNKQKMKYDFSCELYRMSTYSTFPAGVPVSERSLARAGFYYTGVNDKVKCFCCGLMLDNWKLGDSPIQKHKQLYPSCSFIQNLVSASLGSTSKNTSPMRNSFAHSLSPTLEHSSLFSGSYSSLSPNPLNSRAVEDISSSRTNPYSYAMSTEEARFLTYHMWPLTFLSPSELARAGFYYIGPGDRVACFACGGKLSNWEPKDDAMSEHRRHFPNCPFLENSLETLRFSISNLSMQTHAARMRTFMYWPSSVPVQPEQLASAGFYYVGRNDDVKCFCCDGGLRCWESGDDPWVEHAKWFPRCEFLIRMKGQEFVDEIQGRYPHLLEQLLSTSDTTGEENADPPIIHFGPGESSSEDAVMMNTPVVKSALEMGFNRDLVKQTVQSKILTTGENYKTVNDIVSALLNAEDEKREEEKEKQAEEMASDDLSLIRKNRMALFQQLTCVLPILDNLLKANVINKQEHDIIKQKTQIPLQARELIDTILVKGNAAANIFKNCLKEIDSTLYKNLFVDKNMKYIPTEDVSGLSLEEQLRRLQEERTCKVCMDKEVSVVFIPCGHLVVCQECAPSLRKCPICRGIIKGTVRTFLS
UniProt Q12912: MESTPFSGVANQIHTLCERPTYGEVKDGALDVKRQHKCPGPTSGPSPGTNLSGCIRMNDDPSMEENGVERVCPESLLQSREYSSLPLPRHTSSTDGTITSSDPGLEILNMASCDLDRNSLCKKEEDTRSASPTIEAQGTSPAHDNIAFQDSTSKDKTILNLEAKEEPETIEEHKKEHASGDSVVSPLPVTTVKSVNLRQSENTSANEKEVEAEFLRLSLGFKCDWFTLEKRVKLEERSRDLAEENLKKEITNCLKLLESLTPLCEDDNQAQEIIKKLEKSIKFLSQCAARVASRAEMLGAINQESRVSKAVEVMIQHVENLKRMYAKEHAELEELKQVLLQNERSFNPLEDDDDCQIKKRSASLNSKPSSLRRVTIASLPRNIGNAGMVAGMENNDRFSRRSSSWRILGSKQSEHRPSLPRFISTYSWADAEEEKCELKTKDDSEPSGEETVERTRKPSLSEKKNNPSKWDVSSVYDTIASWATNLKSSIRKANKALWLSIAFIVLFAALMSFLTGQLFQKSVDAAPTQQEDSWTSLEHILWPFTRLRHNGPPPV
UniProt Q69YQ0: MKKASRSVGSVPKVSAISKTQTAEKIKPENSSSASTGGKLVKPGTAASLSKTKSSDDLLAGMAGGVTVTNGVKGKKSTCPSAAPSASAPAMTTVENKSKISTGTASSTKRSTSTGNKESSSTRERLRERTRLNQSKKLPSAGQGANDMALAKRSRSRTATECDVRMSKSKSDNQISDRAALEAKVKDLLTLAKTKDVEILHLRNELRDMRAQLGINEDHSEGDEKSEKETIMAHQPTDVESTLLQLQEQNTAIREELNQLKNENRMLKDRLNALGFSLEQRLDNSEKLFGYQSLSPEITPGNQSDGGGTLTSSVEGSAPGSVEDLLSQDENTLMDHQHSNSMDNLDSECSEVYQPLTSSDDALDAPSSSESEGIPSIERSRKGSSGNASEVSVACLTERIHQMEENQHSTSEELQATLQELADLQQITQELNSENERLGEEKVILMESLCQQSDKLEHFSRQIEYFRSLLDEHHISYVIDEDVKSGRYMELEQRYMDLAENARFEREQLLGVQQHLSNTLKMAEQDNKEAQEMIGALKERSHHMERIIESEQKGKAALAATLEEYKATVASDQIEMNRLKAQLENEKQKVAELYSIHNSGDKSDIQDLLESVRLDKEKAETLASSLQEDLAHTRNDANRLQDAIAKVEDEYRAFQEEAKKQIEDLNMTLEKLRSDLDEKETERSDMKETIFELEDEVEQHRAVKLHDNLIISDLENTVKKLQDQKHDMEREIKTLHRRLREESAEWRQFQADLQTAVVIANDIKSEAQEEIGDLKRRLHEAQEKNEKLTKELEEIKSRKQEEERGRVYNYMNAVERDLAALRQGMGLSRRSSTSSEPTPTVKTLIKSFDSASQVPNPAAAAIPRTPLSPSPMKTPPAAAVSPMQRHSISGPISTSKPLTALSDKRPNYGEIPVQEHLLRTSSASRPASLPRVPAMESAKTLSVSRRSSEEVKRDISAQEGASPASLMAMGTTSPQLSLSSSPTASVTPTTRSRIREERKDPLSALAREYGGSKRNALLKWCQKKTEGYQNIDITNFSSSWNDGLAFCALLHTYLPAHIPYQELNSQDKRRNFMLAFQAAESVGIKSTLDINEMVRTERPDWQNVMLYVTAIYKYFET

E9PJM3 and related entries (UniProt Q9UK99)
NP40-soluble protein abundance (concentration: 1mM): 0.964 ± 0.03 | NP40-soluble protein abundance (concentration: 2mM): 0.913 ± 0.081 | NP40-soluble protein abundance (concentration: 4mM): 0.972 ± 0.045 | NP40-soluble protein abundance (concentration: 6mM): 0.964 ± 0.011 | NP40-soluble protein abundance (concentration: 8mM): 0.962 ± 0.03 | NP40-soluble protein abundance (concentration: 10mM): 0.95 ± 0.059

E9PN10 and related entries (UniProt O00559)
NP40-soluble protein abundance (concentration: 1mM): 1 ± 0.016 | NP40-soluble protein abundance (concentration: 2mM): 1.07 ± 0.041 | NP40-soluble protein abundance (concentration: 4mM): 0.993 ± 0.01 | NP40-soluble protein abundance (concentration: 6mM): 1.02 ± 0.013 | NP40-soluble protein abundance (concentration: 8mM): 0.994 ± 0.059 | NP40-soluble protein abundance (concentration: 10mM): 1.04 ± 0.05

E7EQY1 and related entries (UniProt Q96C01)
NP40-soluble protein abundance (concentration: 1mM): 1.01 ± 0.036 | NP40-soluble protein abundance (concentration: 2mM): 1.11 ± 0.07 | NP40-soluble protein abundance (concentration: 4mM): 0.988 ± 0.082 | NP40-soluble protein abundance (concentration: 6mM): 0.991 ± 0.062 | NP40-soluble protein abundance (concentration: 8mM): 0.958 ± 0.062 | NP40-soluble protein abundance (concentration: 10mM): 0.968 ± 0.11

E7EVA0 and related entries (UniProt P27816)
NP40-soluble protein abundance (concentration: 1mM): 1.04 ± 0.018 | NP40-soluble protein abundance (concentration: 2mM): 1.1 ± 0.075 | NP40-soluble protein abundance (concentration: 4mM): 1.02 ± 0.05 | NP40-soluble protein abundance (concentration: 6mM): 1.04 ± 0.026 | NP40-soluble protein abundance (concentration: 8mM): 1 ± 0.044 | NP40-soluble protein abundance (concentration: 10mM): 1.03 ± 0.088

E9PLV1 and related entries (UniProt Q9NQV6)
NP40-soluble protein abundance (concentration: 1mM): 1 ± 0.012 | NP40-soluble protein abundance (concentration: 2mM): 0.963 ± 0.055 | NP40-soluble protein abundance (concentration: 4mM): 0.9952 ± 0.0059 | NP40-soluble protein abundance (concentration: 6mM): 0.989 ± 0.021 | NP40-soluble protein abundance (concentration: 8mM): 1 ± 0.034 | NP40-soluble protein abundance (concentration: 10mM): 0.98 ± 0.023

F8W1A0 and related entries (UniProt P36873)
NP40-soluble protein abundance (concentration: 1mM): 0.983 ± 0.022 | NP40-soluble protein abundance (concentration: 2mM): 0.928 ± 0.056 | NP40-soluble protein abundance (concentration: 4mM): 0.972 ± 0.014 | NP40-soluble protein abundance (concentration: 6mM): 0.985 ± 0.03 | NP40-soluble protein abundance (concentration: 8mM): 0.986 ± 0.021 | NP40-soluble protein abundance (concentration: 10mM): 0.9667 ± 0.0073

G3V1S4 and related entries (UniProt Q9Y324)
NP40-soluble protein abundance (concentration: 1mM): 1 ± 0.0086 | NP40-soluble protein abundance (concentration: 2mM): 0.988 ± 0.022 | NP40-soluble protein abundance (concentration: 4mM): 0.972 ± 0.022 | NP40-soluble protein abundance (concentration: 6mM): 1.01 ± 0.062 | NP40-soluble protein abundance (concentration: 8mM): 1.05 ± 0.046 | NP40-soluble protein abundance (concentration: 10mM): 1.07 ± 0.031

E7EVQ6 and related entries (UniProt Q14534)
NP40-soluble protein abundance (concentration: 1mM): 1.03 ± 0.016 | NP40-soluble protein abundance (concentration: 2mM): 1.01 ± 0.062 | NP40-soluble protein abundance (concentration: 4mM): 1.02 ± 0.038 | NP40-soluble protein abundance (concentration: 6mM): 0.986 ± 0.04 | NP40-soluble protein abundance (concentration: 8mM): 1.02 ± 0.057 | NP40-soluble protein abundance (concentration: 10mM): 1.02 ± 0.082

G3V1C3 and related entries (UniProt Q9BZZ5)
NP40-soluble protein abundance (concentration: 1mM): 0.9316 ± 0.002 | NP40-soluble protein abundance (concentration: 2mM): 0.961 ± 0.029 | NP40-soluble protein abundance (concentration: 4mM): 0.928 ± 0.039 | NP40-soluble protein abundance (concentration: 6mM): 0.9692 ± 0.0088 | NP40-soluble protein abundance (concentration: 8mM): 0.96 ± 0.019 | NP40-soluble protein abundance (concentration: 10mM): 0.994 ± 0.049

E9PF46 and related entries (UniProt P14621)
NP40-soluble protein abundance (concentration: 1mM): 1.006 ± 0.0073 | NP40-soluble protein abundance (concentration: 2mM): 1.03 ± 0.032 | NP40-soluble protein abundance (concentration: 4mM): 1.07 ± 0.055 | NP40-soluble protein abundance (concentration: 6mM): 1.08 ± 0.06 | NP40-soluble protein abundance (concentration: 8mM): 1.06 ± 0.037 | NP40-soluble protein abundance (concentration: 10mM): 1.1 ± 0.038

E9PMH5 and related entries (UniProt Q13490)
NP40-soluble protein abundance (concentration: 1mM): 0.995 ± 0.014 | NP40-soluble protein abundance (concentration: 2mM): 0.973 ± 0.036 | NP40-soluble protein abundance (concentration: 4mM): 0.996 ± 0.025 | NP40-soluble protein abundance (concentration: 6mM): 0.978 ± 0.032 | NP40-soluble protein abundance (concentration: 8mM): 0.965 ± 0.028 | NP40-soluble protein abundance (concentration: 10mM): 0.947 ± 0.013

F8W9L6 and related entries (UniProt Q12912)
NP40-soluble protein abundance (concentration: 1mM): 0.987 ± 0.026 | NP40-soluble protein abundance (concentration: 2mM): 0.997 ± 0.021 | NP40-soluble protein abundance (concentration: 4mM): 0.972 ± 0.017 | NP40-soluble protein abundance (concentration: 6mM): 0.974 ± 0.05 | NP40-soluble protein abundance (concentration: 8mM): 0.974 ± 0.017 | NP40-soluble protein abundance (concentration: 10mM): 0.9673 ± 0.0048

E7EQR8 and related entries (UniProt Q9GZM5)
NP40-soluble protein abundance (concentration: 1mM): 1.01 ± 0.038 | NP40-soluble protein abundance (concentration: 2mM): 1.03 ± 0.024 | NP40-soluble protein abundance (concentration: 4mM): 1 ± 0.02 | NP40-soluble protein abundance (concentration: 6mM): 1.02 ± 0.029 | NP40-soluble protein abundance (concentration: 8mM): 1.01 ± 0.018 | NP40-soluble protein abundance (concentration: 10mM): 1.02 ± 0.019

F8WAN1 and related entries (UniProt Q69YQ0)
NP40-soluble protein abundance (concentration: 1mM): 1.08 ± 0.043 | NP40-soluble protein abundance (concentration: 2mM): 1.1 ± 0.044 | NP40-soluble protein abundance (concentration: 4mM): 1.09 ± 0.067 | NP40-soluble protein abundance (concentration: 6mM): 1.08 ± 0.034 | NP40-soluble protein abundance (concentration: 8mM): 1.05 ± 0.032 | NP40-soluble protein abundance (concentration: 10mM): 1.08 ± 0.049

E7EUU4 and related entries (UniProt Q04637)
NP40-soluble protein abundance (concentration: 1mM): 1.06 ± 0.036 | NP40-soluble protein abundance (concentration: 2mM): 1.12 ± 0.039 | NP40-soluble protein abundance (concentration: 4mM): 1.12 ± 0.045 | NP40-soluble protein abundance (concentration: 6mM): 1.14 ± 0.063 | NP40-soluble protein abundance (concentration: 8mM): 1.15 ± 0.039 | NP40-soluble protein abundance (concentration: 10mM): 1.17 ± 0.056

F8W7U0 and related entries (UniProt Q15811)
NP40-soluble protein abundance (concentration: 1mM): 1.03 ± 0.036 | NP40-soluble protein abundance (concentration: 2mM): 1.01 ± 0.033 | NP40-soluble protein abundance (concentration: 4mM): 1.01 ± 0.051 | NP40-soluble protein abundance (concentration: 6mM): 1.01 ± 0.028 | NP40-soluble protein abundance (concentration: 8mM): 0.952 ± 0.042 | NP40-soluble protein abundance (concentration: 10mM): 0.996 ± 0.051

Reference: the supplement of paper PMC6411743
